Measurements reported in US20070015228A1.
Numbering of substitutions follows the chain as printed. No constants are given. Whether binding was seen depends on the method and setting. Some entries that bind do so weakly or less than the wild type.

What was measured:
[1] = biological target: anti-idiotypic antibody 8A3; test: sandwich ELISA, 8C5 coat, biotinylated 8A3 and streptavidin-HRP detection; the signal needs binding to both 8C5 and 8A3
[2] = biological target: anti-idiotypic antibody 8A3; test: sandwich ELISA in mouse serum, 8C5 coat + 2H7 + 8A3-bio; the signal needs binding to both 8C5 and 8A3
[3] = biological target: mouse anti-CD20 IgG that had the same variable domain as the parent mouse anti-CD20 antibody; test: sandwich ELISA, 8A3 coat, biotinylated 8A3 detection
[4] = biological target: parent mouse anti-CD20 antibody (murine 2H7); test: sandwich ELISA, 8C5 coat, biotinylated 8A3 detection
[5] = biological target: humanized 2H7 variant v114; test: sandwich ELISA, 8C5 coat, biotinylated 8A3 detection, mouse serum
[6] = biological target: v16 as 'mouse 2H7 variant' (Example 4, FIG. 16); test: as above
[7] = biological target: chimeric 2H7 anti-CD20 antibody; test: blocking of chimeric 2H7 binding to WIL2 cells
[8] = biological target: mouse anti-CD20 IgG that had the same variable domain as the parent mouse anti-CD20 antibody; test: ELISA, 8A3 Fab coat, anti-mouse IgG Fc-HRP detection

B1: parent mouse anti-CD20 antibody (murine 2H7) (antibody, V domains shown)
VH: QAYLQQSGAELVRPGASVKMSCKASGYTFTSYNMHWVKQTPRQGLEWIGAIYPGNGDTSYNQKFKGKATLTVDKSSSTAYMQLSSLTSEDSAVYFCARVVYYSNSYWYFDVWGTGTTVTVSS
VL: QIVLSQSPAILSASPGEKVTMTCRASSSVSYMHWYQQKPGSSPKPWIYAPSNLASGVPARFSGSGSGTSYSLTISRVEAEDAATYYCQQWSFNPPTFGAGTKLELKR
binding [1]: binds

B2: v16 as 'mouse 2H7 variant' (Example 4, FIG. 16) (antibody, V domains shown)
VH: DIQMTQSPSSLSASVGDRVTITCRASSSVSYMHWYQQKPGKAPKPLIYAPSNLASGVPSRFSGSGSGTDFTLTISSLQPEDFATYYCQQWSFNPPTFGQGTKVEIKR
VL: EVQLVESGGGLVQPGGSLRLSCAASGYTFTSYNMHWVRQAPGKGLEWVGAIYPGNGDTSYNQKFKGRFTISVDKSKNTLYLQMNSLRAEDTAVYYCARVVYYSNSYWYFDVWGQGTLVTVSS
binding [2]: binds

B3: humanized 2H7 variant v114 (antibody, human IgG1, kappa, V domains shown)
VH: B2 VL with D57A, N104A
VL: B2 VH with M32L, S91A
binding [2]: binds

B4: anti-idiotypic antibody 8A3 (antibody, V domains shown)
VH: QVQLQQSGAELAKPGASVKMSCKASGYNFTTYWMHWVKQRPGQGLEWIGYINPSTDYTEYNQKFKYKATLTADKSSSTAYIQLSSLTSEDSAVYYCARWWDYDWYFDVWGAGTPLTVSS
VL: DIVMTQSQEFMSTSVGDRVSVTCKASQTVDTNVAWYQQKLGQSPKPLIYSASYRCSGVPDRFTGSGSRTDFTLTITNVQSEDLAEYFCQQYHSFPWTFGGGTKVEIKR
binding [3]: binds | binding [4]: binds | binding [5]: binds | binding [6]: binds | binding [7]: binds

B5: 8A3 Fab (Fab, V domains shown)
VH: B4 VH
VL: B4 VL
binding [8]: binds
